Reference: patent US20200316211A1, “LOCALLY ACTING TOLL-LIKE RECEPTOR 7 (TLR7) AND/OR TLR8 AGONIST IMMUNOTHERAPY COMPOUNDS AND THEIR USES” (Altimmune UK Limited, priority 2019, published 2020)
Not every detail of the peptide structures is certain; ends, links or a residue may be inferred. Some compounds share one wording; it may come from a single statement. Where a SMILES comes first, the peptide text is derived from it. Side-chain parts run from the residue outwards. The star is where a group is joined. X1 = CCCCc1nc2c(N)nc3ccccc3c2n1Cc1ccc(CNC(=O)COCC(=O)*)cc1; PEG3 = NCCOCCOCCOCCC(=O)O

How the values were obtained:
[1] = Secondary structure of peptide conjugates by circular dichroism (CD); format: physicochemical; conditions: for Change of alpha-helicity with pH: change in pH from pH 5.2 to pH 7.5, also in the presence of 154 mM sodium chloride
[2] = Appearance (visual) and solubility (RP-HPLC of supernatant) in different buffer conditions; format: physicochemical
Experimental: The solubility of peptide conjugates KK-12, HH-12, AH-12 and HL-12 was determined by visual inspection of the solution and by RP-HPLC. Twenty (20) minutes after dispersion of the peptide conjugates in different buffer conditions, the solutions were centrifuged for 10 minutes and the supernatant analyzed by RP-HPLC. The peak area of each peptide conjugate was compared with the area of the same compound made fully soluble in 10% acetic acid. Appearance of the solution was evaluated visually according to the following criteria: clear, very slightly opalescent, slightly opalescent, opalescent or precipitated.

[3] = tested on: C57BL/6J mice; experiment: In vivo immunological activity, IFNγ ELIspot on splenocytes after s.c. co-administration with ovalbumin; conditions: 10 nmol conjugate + 2 nmol OVA s.c., day 0 and day 14; FIG. 4

Row | SMILES | ALPHA (percentage α-helices) ([1]; pH 5.2, NaCl 154 mM, 20° C.) | BETA (percentage β-sheets) ([1]; pH 5.2, NaCl 154 mM, 20° C.) | OTHERS (percentage other structures) ([1]; pH 5.2, NaCl 154 mM, 20° C.) | ALPHA (percentage α-helices) ([1]; pH 5.2, NaCl 154 mM, 37° C.) | BETA (percentage β-sheets) ([1]; pH 5.2, NaCl 154 mM, 37° C.) | OTHERS (percentage other structures) ([1]; pH 5.2, NaCl 154 mM, 37° C.) | ALPHA (percentage α-helices) ([1]; pH 5.2, no NaCl, 20° C.) | BETA (percentage β-sheets) ([1]; pH 5.2, no NaCl, 20° C.) | OTHERS (percentage other structures) ([1]; pH 5.2, no NaCl, 20° C.) | ALPHA (percentage α-helices) ([1]; pH 5.2, no NaCl, 37° C.) | BETA (percentage β-sheets) ([1]; pH 5.2, no NaCl, 37° C.) | OTHERS (percentage other structures) ([1]; pH 5.2, no NaCl, 37° C.) | ALPHA (percentage α-helices) ([1]; pH 7.5, NaCl 154 mM, 20° C.) | BETA (percentage β-sheets) ([1]; pH 7.5, NaCl 154 mM, 20° C.) | OTHERS (percentage other structures) ([1]; pH 7.5, NaCl 154 mM, 20° C.) | ALPHA (percentage α-helices) ([1]; pH 7.5, NaCl 154 mM, 37° C.) | BETA (percentage β-sheets) ([1]; pH 7.5, NaCl 154 mM, 37° C.) | OTHERS (percentage other structures) ([1]; pH 7.5, NaCl 154 mM, 37° C.) | ALPHA (percentage α-helices) ([1]; pH 7.5, no NaCl, 20° C.) | BETA (percentage β-sheets) ([1]; pH 7.5, no NaCl, 20° C.) | also measured
1 | CCCCc1nc2c(N)nc3ccccc3c2n1Cc1ccc(CNC(=O)COCC(=O)NCCOCCOCCOCCC(=O)NCCCC[C@H](NC(=O)[C@H](CC(C)C)NC(=O)[C@H](CCCNC(=N)N)NC(=O)[C@H](CCCNC(=N)N)NC(=O)[C@H](CC(C)C)NC(=O)[C@H](CC(C)C)NC(=O)[C@H](CCCCN)NC(=O)[C@H](C)NC(=O)[C@H](CCCCN)NC(=O)[C@H](CC(C)C)NC(=O)[C@H](C)NC(=O)[C@H](CC(C)C)NC(=O)[C@H](CCCCN)NC(=O)[C@H](C)NC(=O)[C@H](CCCCN)NC(=O)[C@H](CC(C)C)NC(=O)[C@H](CC(C)C)NC(=O)[C@H](CCCNC(=N)N)NC(=O)[C@H](CCCNC(=N)N)NC(C)=O)C(N)=O)cc1 [KK-12, Ac-RRLLKAKLALKAKLLRRLK(ADJ12)-NH2] (Ac-RRLLKAKLALKAKLLRRLK([PEG3-X1])-NH2) | 41% | 7% | 52% | 38% | 7% | 55% | 23% | 9% | 69% | 26% | 11% | 63% | 45% | 3% | 53% | 39% | 6% | 56% | 24% | 8% | OTHERS (percentage other structures) ([1]; pH 7.5, no NaCl, 20° C.): 68%; ALPHA (percentage α-helices) ([1]; pH 7.5, no NaCl, 37° C.): 29%; BETA (percentage β-sheets) ([1]; pH 7.5, no NaCl, 37° C.): 9%; OTHERS (percentage other structures) ([1]; pH 7.5, no NaCl, 37° C.): 62%; Appearance of the solution ([2]; pH 5.2, NaCl 154 mM): Clear; Appearance of the solution ([2]; pH 5.2, no NaCl): Clear; Appearance of the solution ([2]; pH 7.5, NaCl 154 mM): Clear; Appearance of the solution ([2]; pH 7.5, no NaCl): Clear; In vivo immunological activity (IFNγ SFC per million splenocytes) compared to OVA alone [3]: does not significantly differ
2 | CCCCc1nc2c(N)nc3ccccc3c2n1Cc1ccc(CNC(=O)COCC(=O)NCCOCCOCCOCCC(=O)NCCCC[C@H](NC(=O)[C@H](CC(C)C)NC(=O)[C@H](CCCNC(=N)N)NC(=O)[C@H](CCCNC(=N)N)NC(=O)[C@H](CC(C)C)NC(=O)[C@H](CC(C)C)NC(=O)[C@H](C)NC(=O)[C@H](C)NC(=O)[C@H](Cc2c[nH]cn2)NC(=O)[C@H](CC(C)C)NC(=O)[C@H](C)NC(=O)[C@H](CC(C)C)NC(=O)[C@H](Cc2c[nH]cn2)NC(=O)[C@H](C)NC(=O)[C@H](C)NC(=O)[C@H](CC(C)C)NC(=O)[C@H](CC(C)C)NC(=O)[C@H](CCCNC(=N)N)NC(=O)[C@H](CCCNC(=N)N)NC(C)=O)C(N)=O)cc1 [AH-12, Ac-RRLLAAHLALHAALLRRLK(ADJ12)-NH2] (Ac-RRLLAAHLALHAALLRRLK([PEG3-X1])-NH2) | 43% | 6% | 52% | 39% | 8% | 53% | 34% | 11% | 56% | 32% | 12% | 56% | 81% | 1% | 17% | 77% | 8% | 16% | 59% | 4% | Change of alpha-helicity with pH [1]: dramatically increased the alpha-helicity; OTHERS (percentage other structures) ([1]; pH 7.5, no NaCl, 20° C.): 37%; ALPHA (percentage α-helices) ([1]; pH 7.5, no NaCl, 37° C.): 50%; BETA (percentage β-sheets) ([1]; pH 7.5, no NaCl, 37° C.): 5%; OTHERS (percentage other structures) ([1]; pH 7.5, no NaCl, 37° C.): 45%; Appearance of the solution ([2]; pH 5.2, NaCl 154 mM): Clear; Appearance of the solution ([2]; pH 5.2, no NaCl): Clear; Appearance of the solution ([2]; pH 7.5, NaCl 154 mM): Clear solution; Appearance of the solution ([2]; pH 7.5, no NaCl): Clear; In vivo immunological activity (IFNγ SFC per million splenocytes) compared to OVA alone [3]: significant improvement
3 | CCCCc1nc2c(N)nc3ccccc3c2n1Cc1ccc(CNC(=O)COCC(=O)NCCOCCOCCOCCC(=O)NCCCC[C@H](NC(=O)[C@H](CC(C)C)NC(=O)[C@H](CCCNC(=N)N)NC(=O)[C@H](CCCNC(=N)N)NC(=O)[C@H](CC(C)C)NC(=O)[C@H](CC(C)C)NC(=O)[C@H](Cc2c[nH]cn2)NC(=O)[C@H](C)NC(=O)[C@H](Cc2c[nH]cn2)NC(=O)[C@H](CC(C)C)NC(=O)[C@H](C)NC(=O)[C@H](CC(C)C)NC(=O)[C@H](Cc2c[nH]cn2)NC(=O)[C@H](C)NC(=O)[C@H](Cc2c[nH]cn2)NC(=O)[C@H](CC(C)C)NC(=O)[C@H](CC(C)C)NC(=O)[C@H](CCCNC(=N)N)NC(=O)[C@H](CCCNC(=N)N)NC(C)=O)C(N)=O)cc1 [HH-12, Ac-RRLLHAHLALHAHLLRRLK(ADJ12)-NH2] (Ac-RRLLHAHLALHAHLLRRLK([PEG3-X1])-NH2) | 16% | 24% | 61% | 19% | 22% | 60% | 9% | 17% | 74% | 17% | 14% | 69% | 46% | 8% | 46% | 39% | 13% | 48% | 41% | 7% | Change of alpha-helicity with pH [1]: dramatically increased the alpha-helicity; OTHERS (percentage other structures) ([1]; pH 7.5, no NaCl, 20° C.): 52%; ALPHA (percentage α-helices) ([1]; pH 7.5, no NaCl, 37° C.): 37%; BETA (percentage β-sheets) ([1]; pH 7.5, no NaCl, 37° C.): 8%; OTHERS (percentage other structures) ([1]; pH 7.5, no NaCl, 37° C.): 55%; Appearance of the solution ([2]; pH 5.2, NaCl 154 mM): Clear; Appearance of the solution ([2]; pH 5.2, no NaCl): Clear; Appearance of the solution ([2]; pH 7.5, NaCl 154 mM): Very slightly; Appearance of the solution ([2]; pH 7.5, no NaCl): Clear; In vivo immunological activity (IFNγ SFC per million splenocytes) compared to OVA alone [3]: significant improvement
